According to PMC10669474, “An Exploration of Small Molecules That Bind Human Single-Stranded DNA Binding Protein 1” (Biology, 2023):

Assay: TruHits counter assay (AlphaLISA interference)
Settings: 0.125 to 400 μM

COc1ccc2cc([C@H]3CC(c4cn(C)c5cc(OC)ccc45)=NN3C(=O)CCCC(=O)O)ccc2c1 [DAZLN-55]
concentration above which compound interfered with the AlphaLISA assay: above 10 μM

CCOc1ccc2cc(C3CC(c4ccc(I)cc4)=NN3C(=O)CCCC(=O)O)c(Cl)nc2c1 (stereo not drawn) [TDRL-551]
interference with the AlphaLISA assay: did not

COc1ccc2cc([C@H]3CC(c4cn(C)c5cc(OC)ccc45)=NN3C(=O)CCCC(=O)NCC(=O)N3CCOCC3)ccc2c1 [DAZLN-56]
concentration above which compound interfered with the AlphaLISA assay: above 10 μM
